We go through 2 substances from patent US20050020854A1, “Alkyl(en)ylglycerinether carboxylic acids” (priority 2001, published 2005).

One data set is described as follows: Rotor foam test. Type of data set: physicochemical. To be noted: 40° C., pH 6, 0.5 g/l.
The nature of data set [1]: Foam volume to DIN Standard EN 12728 (beating with perforated plate). Type of data set: physicochemical. To be noted: 0.1 g active substance/l, 40° C., 0° dH, pH 6.0.

Turning to “mono-C12-glycerol ether carboxylic acid [Example 1]”, the rotor foam was determined as 110 mL in “Rotor foam test” (30 s, 0° dH); 80 mL in “Rotor foam test” (30 s, 16° dH); 150 mL in the data set “Rotor foam test” (60 s, 0° dH); 90 mL in the data set “Rotor foam test” (60 s, 16° dH); 180 mL in “Rotor foam test” (90 s, 0° dH); 90 mL in the data set “Rotor foam test” (90 s, 16° dH). For the same substance, the rotor foam was determined as 205 mL in “Rotor foam test” (120 s, 0° dH) and 90 mL in “Rotor foam test” (120 s, 16° dH). Besides, the Foam height in data set [1] (after 5 mins.) came out at 190 mL; in data set [1] (after 10 mins.), 180 mL; in data set [1] (after 20 mins.), 180 mL; in data set [1] (immediately after beating), 190 mL.

“mono-C12-glycerol ether+4EO ether carboxylic acid [Example 2]”: the rotor foam in the data set “Rotor foam test” (30 s, 0° dH) worked out at 280 mL; in “Rotor foam test” (30 s, 16° dH), 220 mL; in the data set “Rotor foam test” (60 s, 0° dH) it was 450 mL; in “Rotor foam test” (60 s, 16° dH), 350 mL; in “Rotor foam test” (90 s, 0° dH) it was 680 mL; in “Rotor foam test” (90 s, 16° dH), 470 mL. Further, the rotor foam in “Rotor foam test” (120 s, 0° dH) is 850 mL; in “Rotor foam test” (120 s, 16° dH), 520 mL.
